In paper PMC12864892:
These are yes or no findings as the source states them, for the method shown. In cells and extracts the contact can be indirect. Some results given as binding are weak or reduced against the parent protein; the word gives no strength. For part of these data: Sequences can lack the tags named with a protein.

By UniProt entry, the sequences of proteins in these tests, tags left out. Residues count along the entry.
UniProt P10909, residues 23-449: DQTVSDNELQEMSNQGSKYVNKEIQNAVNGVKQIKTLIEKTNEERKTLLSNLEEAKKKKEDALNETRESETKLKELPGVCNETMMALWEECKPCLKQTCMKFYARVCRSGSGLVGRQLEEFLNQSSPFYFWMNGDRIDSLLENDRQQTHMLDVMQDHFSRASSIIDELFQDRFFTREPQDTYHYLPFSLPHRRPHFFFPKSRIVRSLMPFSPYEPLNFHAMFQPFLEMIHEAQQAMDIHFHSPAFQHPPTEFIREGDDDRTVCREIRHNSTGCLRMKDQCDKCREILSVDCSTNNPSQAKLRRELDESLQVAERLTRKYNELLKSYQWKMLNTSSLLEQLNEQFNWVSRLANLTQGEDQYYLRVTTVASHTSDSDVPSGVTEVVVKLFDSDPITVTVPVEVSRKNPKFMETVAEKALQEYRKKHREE
UniProt P98164, residues 26-4655: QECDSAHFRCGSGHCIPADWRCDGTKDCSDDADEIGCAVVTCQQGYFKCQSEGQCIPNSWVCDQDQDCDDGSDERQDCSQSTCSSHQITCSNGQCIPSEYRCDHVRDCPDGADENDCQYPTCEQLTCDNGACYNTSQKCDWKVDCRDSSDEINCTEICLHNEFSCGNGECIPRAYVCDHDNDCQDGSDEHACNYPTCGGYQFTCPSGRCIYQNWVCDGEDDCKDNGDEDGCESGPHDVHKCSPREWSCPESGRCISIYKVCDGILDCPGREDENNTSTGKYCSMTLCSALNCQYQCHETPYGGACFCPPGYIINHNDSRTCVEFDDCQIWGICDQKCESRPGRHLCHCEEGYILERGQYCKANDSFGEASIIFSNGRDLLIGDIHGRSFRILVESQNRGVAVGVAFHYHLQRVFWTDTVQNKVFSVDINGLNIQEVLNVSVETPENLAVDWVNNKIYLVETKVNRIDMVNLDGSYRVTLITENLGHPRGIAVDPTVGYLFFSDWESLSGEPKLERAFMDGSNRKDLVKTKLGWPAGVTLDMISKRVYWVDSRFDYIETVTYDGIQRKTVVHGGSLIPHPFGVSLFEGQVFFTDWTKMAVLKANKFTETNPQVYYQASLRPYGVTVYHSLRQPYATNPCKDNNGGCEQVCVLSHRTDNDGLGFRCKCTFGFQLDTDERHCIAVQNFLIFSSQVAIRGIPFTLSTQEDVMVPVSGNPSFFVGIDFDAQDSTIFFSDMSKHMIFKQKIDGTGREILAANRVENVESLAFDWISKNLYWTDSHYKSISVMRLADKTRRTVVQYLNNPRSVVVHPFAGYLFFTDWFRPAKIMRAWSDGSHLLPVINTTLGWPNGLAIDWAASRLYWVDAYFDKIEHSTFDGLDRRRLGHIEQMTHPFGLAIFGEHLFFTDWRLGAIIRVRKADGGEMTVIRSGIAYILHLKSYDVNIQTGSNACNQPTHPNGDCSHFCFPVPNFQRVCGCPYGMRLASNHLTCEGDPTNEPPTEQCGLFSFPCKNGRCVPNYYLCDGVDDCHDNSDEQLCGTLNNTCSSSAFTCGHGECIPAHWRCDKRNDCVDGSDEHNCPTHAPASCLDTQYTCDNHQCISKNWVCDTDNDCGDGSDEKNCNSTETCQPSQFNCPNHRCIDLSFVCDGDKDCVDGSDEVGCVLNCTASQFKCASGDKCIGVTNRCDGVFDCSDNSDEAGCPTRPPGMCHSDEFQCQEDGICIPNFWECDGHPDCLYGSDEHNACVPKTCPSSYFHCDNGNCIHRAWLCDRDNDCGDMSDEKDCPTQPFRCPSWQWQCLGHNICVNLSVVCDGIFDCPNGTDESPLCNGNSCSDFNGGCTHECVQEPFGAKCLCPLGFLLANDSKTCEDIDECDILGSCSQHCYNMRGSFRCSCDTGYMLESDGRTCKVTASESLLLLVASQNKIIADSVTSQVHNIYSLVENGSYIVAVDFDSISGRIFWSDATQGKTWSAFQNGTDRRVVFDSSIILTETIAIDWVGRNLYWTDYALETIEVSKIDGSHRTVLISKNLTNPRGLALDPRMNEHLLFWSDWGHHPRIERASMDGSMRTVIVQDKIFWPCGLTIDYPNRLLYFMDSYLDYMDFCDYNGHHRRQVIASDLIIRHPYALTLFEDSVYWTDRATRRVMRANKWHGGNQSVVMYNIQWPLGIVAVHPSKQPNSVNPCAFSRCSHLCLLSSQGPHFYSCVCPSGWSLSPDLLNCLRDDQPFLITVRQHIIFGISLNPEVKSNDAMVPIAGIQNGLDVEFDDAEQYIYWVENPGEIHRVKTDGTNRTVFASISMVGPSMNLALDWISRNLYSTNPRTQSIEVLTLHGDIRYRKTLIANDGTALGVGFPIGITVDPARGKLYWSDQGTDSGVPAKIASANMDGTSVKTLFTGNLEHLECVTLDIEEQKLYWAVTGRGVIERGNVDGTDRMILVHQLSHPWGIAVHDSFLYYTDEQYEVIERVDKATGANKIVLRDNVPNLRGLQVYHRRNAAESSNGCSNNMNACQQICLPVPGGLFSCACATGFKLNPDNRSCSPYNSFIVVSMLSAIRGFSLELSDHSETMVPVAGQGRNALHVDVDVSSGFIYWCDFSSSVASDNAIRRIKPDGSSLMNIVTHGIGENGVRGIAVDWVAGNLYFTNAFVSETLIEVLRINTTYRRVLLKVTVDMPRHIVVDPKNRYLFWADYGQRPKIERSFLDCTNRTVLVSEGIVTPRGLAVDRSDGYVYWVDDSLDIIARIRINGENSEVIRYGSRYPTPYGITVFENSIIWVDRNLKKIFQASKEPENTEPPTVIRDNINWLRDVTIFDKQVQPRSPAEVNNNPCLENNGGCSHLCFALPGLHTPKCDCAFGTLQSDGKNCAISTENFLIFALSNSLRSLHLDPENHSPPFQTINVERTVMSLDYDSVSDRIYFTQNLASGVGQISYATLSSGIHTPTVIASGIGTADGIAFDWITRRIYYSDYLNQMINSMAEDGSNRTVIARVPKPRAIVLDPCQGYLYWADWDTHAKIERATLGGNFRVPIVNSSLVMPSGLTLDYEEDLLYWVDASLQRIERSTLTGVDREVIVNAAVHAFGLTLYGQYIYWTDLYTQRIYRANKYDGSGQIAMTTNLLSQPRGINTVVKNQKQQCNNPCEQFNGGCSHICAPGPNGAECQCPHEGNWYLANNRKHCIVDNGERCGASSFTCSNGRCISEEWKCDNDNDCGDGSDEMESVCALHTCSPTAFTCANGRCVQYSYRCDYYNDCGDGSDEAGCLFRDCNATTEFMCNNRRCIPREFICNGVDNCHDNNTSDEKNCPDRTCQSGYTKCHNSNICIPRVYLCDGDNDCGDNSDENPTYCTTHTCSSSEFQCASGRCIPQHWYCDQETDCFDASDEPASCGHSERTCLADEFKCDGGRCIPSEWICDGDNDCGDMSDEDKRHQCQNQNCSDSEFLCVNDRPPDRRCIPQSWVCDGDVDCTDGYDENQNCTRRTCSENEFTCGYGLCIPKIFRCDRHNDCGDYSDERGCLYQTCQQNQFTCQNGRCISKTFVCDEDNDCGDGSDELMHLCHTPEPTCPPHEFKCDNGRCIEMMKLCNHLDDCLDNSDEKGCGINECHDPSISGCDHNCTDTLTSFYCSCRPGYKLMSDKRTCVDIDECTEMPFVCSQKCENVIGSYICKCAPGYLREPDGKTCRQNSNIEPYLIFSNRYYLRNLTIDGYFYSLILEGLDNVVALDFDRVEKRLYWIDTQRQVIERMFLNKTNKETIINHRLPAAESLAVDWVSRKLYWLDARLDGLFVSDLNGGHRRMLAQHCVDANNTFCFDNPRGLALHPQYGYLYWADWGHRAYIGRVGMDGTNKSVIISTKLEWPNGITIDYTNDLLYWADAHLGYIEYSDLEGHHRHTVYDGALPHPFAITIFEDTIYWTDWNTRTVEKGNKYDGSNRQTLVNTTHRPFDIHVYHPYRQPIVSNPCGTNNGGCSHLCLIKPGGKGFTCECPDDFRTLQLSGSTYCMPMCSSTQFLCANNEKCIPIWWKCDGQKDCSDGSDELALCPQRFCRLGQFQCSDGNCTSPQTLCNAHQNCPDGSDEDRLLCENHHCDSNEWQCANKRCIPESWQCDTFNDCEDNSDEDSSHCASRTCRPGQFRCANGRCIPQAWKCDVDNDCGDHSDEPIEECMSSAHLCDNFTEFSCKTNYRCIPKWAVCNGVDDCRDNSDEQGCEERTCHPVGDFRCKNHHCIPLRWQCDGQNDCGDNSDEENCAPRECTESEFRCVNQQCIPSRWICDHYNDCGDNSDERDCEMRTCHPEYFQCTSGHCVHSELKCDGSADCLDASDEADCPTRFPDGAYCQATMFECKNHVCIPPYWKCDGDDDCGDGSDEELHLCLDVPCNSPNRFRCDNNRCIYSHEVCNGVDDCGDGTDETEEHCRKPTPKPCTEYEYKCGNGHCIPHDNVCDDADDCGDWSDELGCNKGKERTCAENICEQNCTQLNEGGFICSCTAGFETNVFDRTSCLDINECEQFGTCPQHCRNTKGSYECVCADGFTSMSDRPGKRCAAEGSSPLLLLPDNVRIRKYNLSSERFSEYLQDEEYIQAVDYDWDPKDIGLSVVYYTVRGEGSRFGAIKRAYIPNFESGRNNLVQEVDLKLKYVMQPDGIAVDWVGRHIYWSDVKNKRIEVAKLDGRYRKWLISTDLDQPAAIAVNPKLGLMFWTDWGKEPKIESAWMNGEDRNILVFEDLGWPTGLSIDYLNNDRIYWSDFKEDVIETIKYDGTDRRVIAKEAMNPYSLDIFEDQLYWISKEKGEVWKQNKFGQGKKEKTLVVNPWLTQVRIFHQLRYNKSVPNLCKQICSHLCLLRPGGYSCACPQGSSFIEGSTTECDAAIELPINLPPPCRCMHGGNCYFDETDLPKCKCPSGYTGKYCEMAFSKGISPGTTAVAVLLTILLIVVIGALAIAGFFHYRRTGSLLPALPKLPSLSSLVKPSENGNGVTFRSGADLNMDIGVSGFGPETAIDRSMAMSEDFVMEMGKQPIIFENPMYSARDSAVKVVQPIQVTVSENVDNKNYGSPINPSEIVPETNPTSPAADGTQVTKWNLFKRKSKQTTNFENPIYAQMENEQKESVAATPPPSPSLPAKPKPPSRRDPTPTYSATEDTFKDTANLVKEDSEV

Experiments:
[1] = target: clusterin (CLU), endogenous in TNBC cells (human (endogenous in MDA-MB-468 and MDA-MB-231)) (UniProt P10909); experiment: co-IP; endogenous proteins in MDA-MB-468 and MDA-MB-231 lysates, with or without PKP3 knockdown; antibody-conjugated beads, 4 °C for 12 h; Western blot
HA-tagged CLU = HA-tagged CLU (UniProt P10909); experiment: co-IP; HEK293T (293T) cells overexpressing HA-CLU or its truncates and FLAG-PKP3 or its truncates; anti-FLAG and anti-HA antibodies; Western blot

| Molecule | binding [1] | binding (HA-tagged CLU) |
| --- | --- | --- |
| LRP2 (from UniProt P98164 26-4655) (receptor) | binds |  |
| plakophilin 3 (PKP3), endogenous in TNBC cells (protein, UniProt Q9Y446 1-797) MQDGNFLLSALQPEAGVCSLALPSDLQLDRRGAEGPEAERLRAARVQEQVRARLLQLGQQPRHNGAAEPEPEAETARGTSRGQYHTLQAGFSSRSQGLSGDKTSGFRPIAKPAYSPASWSSRSAVDLSCSRRLSSAHNGGSAFGAAGYGGAQPTPPMPTRPVSFHERGGVGSRADYDTLSLRSLRLGPGGLDDRYSLVSEQLEPAATSTYRAFAYERQASSSSSRAGGLDWPEATEVSPSRTIRAPAVRTLQRFQSSHRSRGVGGAVPGAVLEPVARAPSVRSLSLSLADSGHLPDVHGFNSYGSHRTLQRLSSGFDDIDLPSAVKYLMASDPNLQVLGAAYIQHKCYSDAAAKKQARSLQAVPRLVKLFNHANQEVQRHATGAMRNLIYDNADNKLALVEENGIFELLRTLREQDDELRKNVTGILWNLSSSDHLKDRLARDTLEQLTDLVLSPLSGAGGPPLIQQNASEAEIFYNATGFLRNLSSASQATRQKMRECHGLVDALVTSINHALDAGKCEDKSVENAVCVLRNLSYRLYDEMPPSALQRLEGRGRRDLAGAPPGEVVGCFTPQSRRLRELPLAADALTFAEVSKDPKGLEWLWSPQIVGLYNRLLQRCELNRHTTEAAAGALQNITAGDRRWAGVLSRLALEQERILNPLLDRVRTADHHQLRSLTGLIRNLSRNARNKDEMSTKVVSHLIEKLPGSVGEKSPPAEVLVNIIAVLNNLVVASPIAARDLLYFDGLRKLIFIKKKRDSPDSEKSSRAASSLLANLWQYNKLHRDFRAKGYRKEDFLGP | binds |  |
| FLAG-tagged PKP3 (protein, UniProt Q9Y446 1-797) MQDGNFLLSALQPEAGVCSLALPSDLQLDRRGAEGPEAERLRAARVQEQVRARLLQLGQQPRHNGAAEPEPEAETARGTSRGQYHTLQAGFSSRSQGLSGDKTSGFRPIAKPAYSPASWSSRSAVDLSCSRRLSSAHNGGSAFGAAGYGGAQPTPPMPTRPVSFHERGGVGSRADYDTLSLRSLRLGPGGLDDRYSLVSEQLEPAATSTYRAFAYERQASSSSSRAGGLDWPEATEVSPSRTIRAPAVRTLQRFQSSHRSRGVGGAVPGAVLEPVARAPSVRSLSLSLADSGHLPDVHGFNSYGSHRTLQRLSSGFDDIDLPSAVKYLMASDPNLQVLGAAYIQHKCYSDAAAKKQARSLQAVPRLVKLFNHANQEVQRHATGAMRNLIYDNADNKLALVEENGIFELLRTLREQDDELRKNVTGILWNLSSSDHLKDRLARDTLEQLTDLVLSPLSGAGGPPLIQQNASEAEIFYNATGFLRNLSSASQATRQKMRECHGLVDALVTSINHALDAGKCEDKSVENAVCVLRNLSYRLYDEMPPSALQRLEGRGRRDLAGAPPGEVVGCFTPQSRRLRELPLAADALTFAEVSKDPKGLEWLWSPQIVGLYNRLLQRCELNRHTTEAAAGALQNITAGDRRWAGVLSRLALEQERILNPLLDRVRTADHHQLRSLTGLIRNLSRNARNKDEMSTKVVSHLIEKLPGSVGEKSPPAEVLVNIIAVLNNLVVASPIAARDLLYFDGLRKLIFIKKKRDSPDSEKSSRAASSLLANLWQYNKLHRDFRAKGYRKEDFLGP |  | binds |
